Experiment [1] addresses T1, FLAG-Q244AzF-NR2F1 (human) (UniProt P10589).
T1 sequence (chain, p-azidophenylalanine (AzF) at position 244): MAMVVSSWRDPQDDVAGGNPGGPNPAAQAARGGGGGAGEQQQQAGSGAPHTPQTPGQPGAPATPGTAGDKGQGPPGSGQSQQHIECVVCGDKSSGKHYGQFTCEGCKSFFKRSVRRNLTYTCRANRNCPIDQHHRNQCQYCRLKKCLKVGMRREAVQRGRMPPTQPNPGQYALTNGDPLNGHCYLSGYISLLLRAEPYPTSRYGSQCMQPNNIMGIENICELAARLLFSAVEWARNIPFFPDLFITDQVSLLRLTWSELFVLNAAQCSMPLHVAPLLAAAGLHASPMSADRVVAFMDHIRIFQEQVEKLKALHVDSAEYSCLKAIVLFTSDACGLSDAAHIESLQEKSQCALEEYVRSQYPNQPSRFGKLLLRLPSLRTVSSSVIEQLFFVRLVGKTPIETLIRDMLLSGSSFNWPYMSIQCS
Put plainly: cross-linking.

Chains of the proteins cited; added tags and fusions are not shown. Lines headed by an entry give the natural chain unless they say otherwise; changes in a name come on top.
UniProt P19793, whole entry: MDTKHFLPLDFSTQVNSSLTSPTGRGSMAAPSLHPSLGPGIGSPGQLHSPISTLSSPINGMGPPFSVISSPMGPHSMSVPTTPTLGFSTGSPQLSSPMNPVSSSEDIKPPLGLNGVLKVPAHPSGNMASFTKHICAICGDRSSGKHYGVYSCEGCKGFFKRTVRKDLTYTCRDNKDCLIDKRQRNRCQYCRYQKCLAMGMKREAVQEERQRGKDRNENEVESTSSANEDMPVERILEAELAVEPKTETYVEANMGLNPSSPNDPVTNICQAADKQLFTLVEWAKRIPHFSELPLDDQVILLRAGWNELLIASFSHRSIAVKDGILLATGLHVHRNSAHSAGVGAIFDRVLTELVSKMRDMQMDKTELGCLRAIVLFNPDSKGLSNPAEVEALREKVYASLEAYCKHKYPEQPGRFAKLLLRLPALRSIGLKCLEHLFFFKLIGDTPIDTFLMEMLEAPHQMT

For experiment [2], the target named is T2, FLAG-AzF-NR2F1 L372AzF (human) (UniProt P10589).
T2 sequence (chain, p-azidophenylalanine (AzF) at position 372): T1 sequence (chain, p-azidophenylalanine (AzF) at position 244) with F244Q, L372F
Put plainly: cross-linking.

The target in experiment [3] is T1, FLAG-Q244AzF-NR2F1 (human). Put plainly: cross-linking. This is another data set of the same source.
For experiment [4], the target named is FLAG-Q244AzF-NR2F1 with the pathogenic mutation L252P (human) (UniProt P10589). Put plainly: cross-linking.
For experiment [5], the target named is FLAG-Q244AzF-NR2F1 with the pathogenic mutation L372P (human) (UniProt P10589). As to the kind of experiment: cross-linking.
In experiment [6] the target is FLAG-Q244AzF-NR2F1 with the pathogenic mutation E318D (human) (UniProt P10589). As to the kind of experiment: cross-linking.
The target in experiment [7] is FLAG-Q244AzF-NR2F1 with the pathogenic mutation G395A (human) (UniProt P10589). As to the kind of experiment: cross-linking.
The next experiment has as its target T3, FLAG-NR2F1 G368D (human) (UniProt P10589).
T3 sequence: T1 sequence (chain, p-azidophenylalanine (AzF) at position 244) with F244Q, G368D
Put plainly: co-IP.

This note sets out measurements from article doi:10.1101/2023.07.24.550340.

Positions count from the first letter of the chain named. Like-named read-outs stand apart in the source and are kept apart here. These are yes or no findings as the source states them, for the method shown. Binding seen in cells or lysates may run through a third protein. Some binding calls cover weakened binding; strength is not graded here. For some assays here: Tags and fused reporters may be left off the sequences shown.

Regarding “Myc-tagged RXRα (Myc-RXRα) (from UniProt P19793 1-462)”, the binding entry in experiment [1], in experiment [2], in experiment [3], in experiment [4], in experiment [5] and in experiment [6] was “binds” each time. The results for the binding result (in experiment [7]; with FLAG-NR2F1 G368D (human)) were “binds” and “no binding”, respectively.
